Measurements as given in US11426385B2, “Methods of improving cancer chemotherapy” (THE REGENTS OF THE UNIVERSITY OF CALIFORNIA, priority 2017, dated 2022).
At least one structure is not confirmed: it was looked up by name or label, or the drawing left a doubt.

System: bladder cancer PDX BL0269
Test: tumor growth in NSG-PDX bladder cancer mouse model BL0269
Type: in vivo, NSG mice
Settings: combined with cisplatin 2 mg/kg
Procedure: Materials and Supplies. Bladder cancer subject-derived xenograft (PDX) models were provided by The Jackson Laboratory (JAX, Bar Harbor, Me.). […] All experiments utilized PDX models within the first five passages. […] Gemcitabine was purchased from LC Laboratories (Woburn, Mass.). […] The cell lines have not been tested and authenticated by the authors.
PDX bladder cancer. NSG PDX studies were performed at the University of California Davis with IACUC approval. […] Gemcitabine was dissolved in 0.9% saline and administered at a dose of 150 mg/kg (IP, weekly) for 4 weeks. Animal weight and tumor size were measured twice per week. […] The percentage of tumor growth inhibition (TGI) was calculated as follows; 100%×(1−[(V^treated(final day)−V^treated(initial day))/(V^control(final day)−V^control(initial day))]), where V is tumor volume.
Statistics. Data are presented as mean±standard error of the mean (SEM) or mean±standard deviation (SD). Group comparisons were carried out using one-way analysis of variance or Student's t test. Survival analysis was performed using the Kaplan-Meier method. A p value of less than 0.05 was considered statistically significant.

Cc1ccc(-c2cc(C(F)(F)F)nn2-c2ccc(S(N)(=O)=O)cc2)cc1 [celecoxib]
potentiation of cisplatin with respect to inhibiting tumor growth: did not observe any potentiation of cisplatin
